Test results from patent US20110003898A1, “MEDICAL GLUES FOR SURGERY COMPRISING BIOACTIVE COMPOUNDS” (Bayer MaterialScience AG, priority 2008, published 2011).

Experiment: In vitro bonding of muscular tissue, adhesive strength by pulling
Conditions: adhesive with 2-5% active ingredient on meat, pulling after 4 min; ^2 = suspension

Question: Which “Adhesive strengths [after 4 min]” value does the source give for `[H]/N=C(\N/C(=N/[H])NCCCCCCNC(=N)NC(=N)Nc1ccc(Cl)cc1)Nc1ccc(Cl)cc1` [chlorhexidine] here?
Answer: ++

Question: For `Cc1ccc(C(C)C)c(O)c1` [thymol], which “Adhesive strengths [after 4 min]” value is on record?
Answer: ++

Question: With `O=C1OC(CN2CCOCC2)CN1/N=C/c1ccc([N+](=O)[O-])o1` (stereo not shown) [furaldatone] as the compound, how does the “Adhesive strengths [after 4 min]” value read?
Answer: +

Question: For `OC(Cn1cncn1)(Cn1cncn1)c1ccc(F)cc1F` [fluconazole], which “Adhesive strengths [after 4 min]” value is on record?
Answer: [3]

Question: With `CC(=O)NS(=O)(=O)c1ccc(N)cc1` [sulfacetamide] as the compound, how does the “Adhesive strengths [after 4 min]” value read?
Answer: ++

Question: With `CC(=O)Nc1ccc(O)cc1` [paracetamol] as the compound, how does the “Adhesive strengths [after 4 min]” value read?
Answer: +

Question: For `CCCCN1CCCCC1C(=O)Nc1c(C)cccc1C` (stereo not shown) [bupivacaine], which “Adhesive strengths [after 4 min]” value is on record?
Answer: +

Question: For `CN(C)CCC=C1c2ccccc2CCc2ccccc21` [amitriptyline], which “Adhesive strengths [after 4 min]” value is on record?
Answer: ++

Question: Which “Adhesive strengths [after 4 min]” value does the source give for `C[C@]12CCC(=O)C=C1CC[C@@H]1[C@@H]2C(=O)C[C@@]2(C)[C@H]1CC[C@]2(O)C(=O)CO` [cortisone] here?
Answer: ++

Question: With `CC(=O)Oc1ccccc1C(=O)O` [acetylsalicylic acid] as the compound, how does the “Adhesive strengths [after 4 min]” value read?
Answer: ++

Question: With `Oc1cc(Cl)ccc1Oc1ccc(Cl)cc1Cl` [triclosan (Irgasan), 2,4,4′-trichloro-2′-hydroxydiphenyl ether] as the compound, how does the “Adhesive strengths [after 4 min]” value read?
Answer: ++

Question: Which “Adhesive strengths [after 4 min]” value does the source give for `COc1ccc2c(c1)c(CC(=O)OCC(=O)O)c(C)n2C(=O)c1ccc(Cl)cc1` [acemetacine] here?
Answer: +

Question: Which “Adhesive strengths [after 4 min]” value does the source give for `CCN(CC)CC(=O)Nc1c(C)cccc1C` [lidocaine] here?
Answer: ++

Question: Which “Adhesive strengths [after 4 min]” value does the source give for `COc1cccc(C2(O)CCCCC2CN(C)C)c1` (stereo not shown) [tramadol] here?
Answer: ++

Question: With `CCN1CCN(c2cc3c(cc2F)c(=O)c(C(=O)O)cn3C2CC2)CC1` [enrofloxazine] as the compound, how does the “Adhesive strengths [after 4 min]” value read?
Answer: ++

Question: Which “Adhesive strengths [after 4 min]” value does the source give for `CCOC(=O)c1ccc(N)cc1` [benzocaine] here?
Answer: +

Question: For `CC(C)Cc1ccc(C(C)C(=O)O)cc1` (stereo not shown) [ibuprofen], which “Adhesive strengths [after 4 min]” value is on record?
Answer: ++

Question: With `Cc1ncc([N+](=O)[O-])n1CCO` [metronidazole] as the compound, how does the “Adhesive strengths [after 4 min]” value read?
Answer: ++

Question: For `CCCCNc1ccc(C(=O)OCCN(C)C)cc1` [tetracaine], which “Adhesive strengths [after 4 min]” value is on record?
Answer: +
